Laboratory results published in paper PMC3843822.
These are yes or no findings as the source states them, for the method shown. In cells and extracts the contact can be indirect. A yes stands for co-enrichment or nearness to the bait. Other partners may have been found. For some of these results: Where a sequence is shown, tags or fusion partners need not be part of it.

The chains behind the UniProt entries cited, without tags or fusion partners.
UniProt G5EES3: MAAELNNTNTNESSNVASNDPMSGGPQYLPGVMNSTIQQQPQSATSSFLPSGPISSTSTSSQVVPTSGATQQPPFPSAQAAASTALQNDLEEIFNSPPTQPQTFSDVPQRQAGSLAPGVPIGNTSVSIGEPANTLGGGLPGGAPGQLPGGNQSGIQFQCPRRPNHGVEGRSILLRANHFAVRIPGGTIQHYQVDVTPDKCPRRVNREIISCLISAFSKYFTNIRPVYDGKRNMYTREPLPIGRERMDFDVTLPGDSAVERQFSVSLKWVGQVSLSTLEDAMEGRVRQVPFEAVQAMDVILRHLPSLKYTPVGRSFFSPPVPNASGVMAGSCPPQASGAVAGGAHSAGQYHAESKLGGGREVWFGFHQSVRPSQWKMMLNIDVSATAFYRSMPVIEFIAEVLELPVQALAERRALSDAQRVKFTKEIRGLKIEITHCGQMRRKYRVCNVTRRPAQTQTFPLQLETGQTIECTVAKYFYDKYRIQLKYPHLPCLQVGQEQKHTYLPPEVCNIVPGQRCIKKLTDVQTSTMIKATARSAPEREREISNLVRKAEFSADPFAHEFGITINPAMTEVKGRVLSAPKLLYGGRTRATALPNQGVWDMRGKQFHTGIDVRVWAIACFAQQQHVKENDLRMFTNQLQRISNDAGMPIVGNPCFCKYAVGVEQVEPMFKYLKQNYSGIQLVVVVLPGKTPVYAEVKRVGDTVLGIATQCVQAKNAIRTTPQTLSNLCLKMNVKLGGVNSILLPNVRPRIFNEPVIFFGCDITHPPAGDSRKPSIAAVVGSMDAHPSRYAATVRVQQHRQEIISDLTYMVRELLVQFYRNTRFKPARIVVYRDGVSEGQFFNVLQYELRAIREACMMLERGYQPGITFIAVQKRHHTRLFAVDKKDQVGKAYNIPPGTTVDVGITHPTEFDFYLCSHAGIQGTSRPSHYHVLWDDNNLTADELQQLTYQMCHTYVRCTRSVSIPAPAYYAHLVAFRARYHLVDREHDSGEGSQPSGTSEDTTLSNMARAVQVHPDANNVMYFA

T1: GLD-1::GFP fusion protein (C. elegans) (UniProt Q17339)
T1 sequence: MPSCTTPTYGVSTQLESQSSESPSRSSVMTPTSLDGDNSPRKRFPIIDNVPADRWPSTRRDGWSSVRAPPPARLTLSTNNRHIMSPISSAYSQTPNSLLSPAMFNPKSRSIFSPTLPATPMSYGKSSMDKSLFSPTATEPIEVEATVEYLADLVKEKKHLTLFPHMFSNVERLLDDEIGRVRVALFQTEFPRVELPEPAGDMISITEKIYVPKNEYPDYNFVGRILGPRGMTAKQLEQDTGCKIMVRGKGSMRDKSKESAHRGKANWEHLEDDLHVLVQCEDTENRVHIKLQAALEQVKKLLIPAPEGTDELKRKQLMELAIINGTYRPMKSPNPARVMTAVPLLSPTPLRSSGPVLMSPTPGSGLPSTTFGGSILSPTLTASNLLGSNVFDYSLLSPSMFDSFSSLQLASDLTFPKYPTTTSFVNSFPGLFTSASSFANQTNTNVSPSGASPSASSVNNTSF

T2: GLD-1 (C. elegans (endogenous in N2 wild-type worms)) (UniProt Q17339)
T2 sequence: T1 sequence

B1: CGH-1 helicase (protein, UniProt Q95YF3 1-430)
chain: MSGAEQQQIVPANNGDENWKAGLNLPAKDRRFKTADVTDTKGVEFEDFCLGRDLLMGIFEKGWEKPSPIQEASIGVALTGQDILARAKNGTGKTGAYCIPVIEKIQPALKAIQAMVIVPTRELALQTSQICVELSKHIQLKVMVTTGGTDLRDDIMRLNGTVHLVIATPGRILDLMEKGVAKMEHCKTLVLDEADKLLSQDFQGILDRLINFLPKERQVMLYSATFPNTVTSFMQKHMHKPYEINLMEELTLLGVTQYYAFVQEKQKVHCLNTLFRKLQINQSIIFCNSTQRVELLAKKITEIGYSCYYIHSKMAQNHRNRVFHDFRQGNCRNLVCSDLLTRGIDIQAVNVVINFDFPRNAETYLHRIGRSGRFGHLGVAINLITYEDRHTLRRIEQELRTRIEPIPKTVDPKLYVADQQLVDAADETTA
B2: CAR-1 (protein, UniProt Q9XW17 1-340)
chain: MSNQTPYIGSKISLISKLDIRYEGILYTVDTNDSTIALAKVRSFGTEKRPTANPVAARDDVYEYIIFKASDIKDLIVCDTPKMANIGGGLPYDPAIISVSSRSAPASDGAPAASAGSSRAGTPSRNSPLGQIIQNQRPGRGGYQQNFQANRGYNNYRGGFAGGYNNQRGHNNYGVPRVNHREKLKFESDFDFEKANEKFQEVLVDNLEKLNIEDKAEPEVEEKKDAAFYDKKTSFFDNISCESLEKAEGKTGRPDWKKERETNQETFGHNAVRSLNYRRGFGGRGRGGNRGYGGYNNGYQHQHQHRGGYNGGYRQNNGGYRRGGYAPRDNQGNTAAAAEQ
B3: PAB-1 (protein, UniProt Q9U302 1-646)
chain: MEMNVAAPAAAVAGAAAPQPGQNQTGSSYTMASLYVGDLHPDVNESILFEKFSAAGPVLSIRVCRDNATRLSLGYAYVNFQQPADAERAMDTMNFEALHGKPMRIMWSQRDPAMRRSGAGNIFIKNLDKVIDNKSIYDTFSLFGNILSCKVAIDEDGFSKGYGFVHFETEEAAQNAIQKVNGMLLAGKKVFVGKFQPRAQRNRELGETAKQFTNVYVKNFGDHYNKETLEKLFAKFGNITSCEVMTVEGKSKGFGFVAFANPEEAETAVQALHDSTIEGTDLKLHVCRAQKKSERHAELKKKHEQHKAERMQKYQGVNLYVKNLDETVDDDGLKKQFESYGNITSAKVMTDENGRSKGFGFVCFEKPEEATSAVTEMNSKMVCSKPLYVAIAQRKEDRRAQLASQYMQRLASMRMHGNVPGAAMYNPTQPGPGYYVANPMQQQRNFAGGQQMVRPGGRWGMQNQYPVQNQYMMAQGPGVYQNRMGRPQNQQGGPRGPPQQYNQVAQGGVRMQGPPRTQNPGVQQQNVPRPPQQQQQQRPAPTGPKAPPQPYQAYQQRPQGIVIGGQEPLTSAMLAAAAPQEQKQLLGERIYALIEKLYPGHKDAGKITGMMLEIDNSELIMMLQDSELFRSKVDEAASVLVSAQKQ

How the values were obtained:
[1] = target: T1, GLD-1::GFP fusion protein (C. elegans); assay: affinity purification with mass spectrometry; GFP-binder pull-down of GLD-1::GFP complexes from gld-1(q485); ozIs2 [gld-1::gfp::FLAG] worms, as described in ref. 31; mass spectrometry
[2] = target: T2, GLD-1 (C. elegans (endogenous in N2 wild-type worms)); assay: affinity purification with mass spectrometry; rabbit anti-GLD-1 antibody with protein G sepharose beads on 2 mg N2 wild-type worm lysate (10 mM Tris-HCl pH 7.5, 150 mM NaCl, 0.5 mM EDTA, 0.5% NP40), 4°C; washed with 300 mM NaCl; no-Ab beads as mock; SDS gel, silver stain, mass spectrometry

Row | Molecule | binding [1] | binding [2]
1 | ALG-1 (from UniProt G5EES3 1-1023) | binds | binds
2 | CEY-4 (C. elegans (endogenous in worms)) | binds | binds
3 | CEY-3 (C. elegans (endogenous in worms)) | binds | binds
4 | SQD-1 (C. elegans (endogenous in worms)) | binds | binds
5 | CEY-2 (C. elegans (endogenous in worms)) | binds | binds
6 | B1 | binds | binds
7 | B2 | binds | binds
8 | B3 | binds | binds
